Assay results as given in PMC5772613, “Phosphorylation induced cochaperone unfolding promotes kinase recruitment and client class-specific Hsp90 phosphorylation” (Nature Communications, 2018).
Positions count from the first letter of the chain named. No constants are given. Whether binding was seen depends on the method and setting. Binding calls can cover weak binding; strength is not graded here.

By UniProt entry, the sequences of proteins in these tests, tags left out. Where a name states a change or a piece, a line headed by the entry shows the natural chain unless it says otherwise.
UniProt P15056: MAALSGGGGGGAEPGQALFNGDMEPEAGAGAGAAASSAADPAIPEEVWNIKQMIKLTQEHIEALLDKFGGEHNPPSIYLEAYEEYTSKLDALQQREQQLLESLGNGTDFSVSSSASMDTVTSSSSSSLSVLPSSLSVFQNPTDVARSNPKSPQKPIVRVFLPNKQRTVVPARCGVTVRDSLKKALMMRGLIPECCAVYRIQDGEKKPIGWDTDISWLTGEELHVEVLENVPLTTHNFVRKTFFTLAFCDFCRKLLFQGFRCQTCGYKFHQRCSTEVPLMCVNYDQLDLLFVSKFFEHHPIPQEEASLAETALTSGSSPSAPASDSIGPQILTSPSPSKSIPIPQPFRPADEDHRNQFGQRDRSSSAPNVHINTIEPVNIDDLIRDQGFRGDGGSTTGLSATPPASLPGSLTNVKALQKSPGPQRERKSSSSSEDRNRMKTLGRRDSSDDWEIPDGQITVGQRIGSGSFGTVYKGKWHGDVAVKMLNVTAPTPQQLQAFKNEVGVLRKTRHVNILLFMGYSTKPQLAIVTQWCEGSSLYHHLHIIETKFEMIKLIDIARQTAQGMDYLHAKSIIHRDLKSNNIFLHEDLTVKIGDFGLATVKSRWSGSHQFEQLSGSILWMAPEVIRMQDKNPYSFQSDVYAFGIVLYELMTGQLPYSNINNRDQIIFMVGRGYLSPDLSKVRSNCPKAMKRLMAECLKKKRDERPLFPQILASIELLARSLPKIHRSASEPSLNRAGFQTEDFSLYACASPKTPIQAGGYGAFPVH

Columns and labels:
[1] = molecular target: T1, Full-length human Cdc37 (human) (UniProt Q16543); test: ITC; bRaf (35-90 μM, syringe) titrated into Cdc37 variants (~3-8 μM, cell); 20 °C; 20 mM Tris, 100 mM NaCl, 0.5 mM EDTA, 1 mM TCEP; single binding site model; both purified
T1 sequence: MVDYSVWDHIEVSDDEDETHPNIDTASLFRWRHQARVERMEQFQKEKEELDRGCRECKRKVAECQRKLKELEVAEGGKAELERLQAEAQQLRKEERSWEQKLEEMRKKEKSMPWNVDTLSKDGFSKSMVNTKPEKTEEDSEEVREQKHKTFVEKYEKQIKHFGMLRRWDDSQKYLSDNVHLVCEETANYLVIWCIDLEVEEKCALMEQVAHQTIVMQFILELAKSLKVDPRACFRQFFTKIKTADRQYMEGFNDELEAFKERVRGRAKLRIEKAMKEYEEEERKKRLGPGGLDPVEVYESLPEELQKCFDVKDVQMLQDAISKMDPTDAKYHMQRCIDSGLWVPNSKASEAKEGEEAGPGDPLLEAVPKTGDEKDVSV

[2] = molecular target: T2, Cdc37 double-phosphomimetic mutant Y4E/Y298E (human) (UniProt Q16543); test: as above
T2 sequence: T1 sequence with Y4E, Y298E

[3] = molecular target: T3, Cdc37 single phosphomimetic mutant Y4E (human) (UniProt Q16543); test: as above
T3 sequence: T1 sequence with Y4E

[4] = molecular target: T4, Full-length Cdc37 carrying the phosphomimetic mutation Y298E (human) (UniProt Q16543); test: as above
T4 sequence: T1 sequence with Y298E

[5] = molecular target: T1, Full-length human Cdc37 (human); test: SEC; analytical, Biorad Enrich SEC 650, 4 °C; 20 mM Tris pH 7.5, 100 mM NaCl, 0.5 mM EDTA, 2 mM DTT; binary mixtures 1:1 and ternary mixtures Hsp90:Cdc37:bRaf 2:1:1, incubated 15 min at 4 °C; both purified
[6] = molecular target: T2, Cdc37 double-phosphomimetic mutant Y4E/Y298E (human); test: as above
[7] = molecular target: T3, Cdc37 single phosphomimetic mutant Y4E (human); test: as above
[8] = molecular target: T4, Full-length Cdc37 carrying the phosphomimetic mutation Y298E (human); test: as above

Measured: binding

Catalytic domain of bRaf (from UniProt P15056) (domain or fragment)
binds: all assays above
